Results: US20030096379A1, “Method for producing tryptamine derivatives” (priority 2001, published 2003)
At least one compound was matched to its structure with a doubt left. Marks after values point to notes of the source that are not given here.

Amino acid sequences for entries named in this document (tags omitted). A change or cut given only in a name is not applied to a line headed by its entry.
UniProt P0A879: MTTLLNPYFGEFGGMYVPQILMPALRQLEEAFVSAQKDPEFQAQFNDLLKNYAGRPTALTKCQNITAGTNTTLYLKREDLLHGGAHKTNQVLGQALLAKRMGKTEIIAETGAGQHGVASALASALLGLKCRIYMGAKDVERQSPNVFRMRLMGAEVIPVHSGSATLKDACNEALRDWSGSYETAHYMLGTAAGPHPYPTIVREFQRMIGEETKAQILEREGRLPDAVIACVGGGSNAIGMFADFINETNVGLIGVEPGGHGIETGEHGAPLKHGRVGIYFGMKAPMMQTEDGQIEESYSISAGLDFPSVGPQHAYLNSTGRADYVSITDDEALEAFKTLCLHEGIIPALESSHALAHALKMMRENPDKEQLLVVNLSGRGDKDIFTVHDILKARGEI
UniProt P0A853: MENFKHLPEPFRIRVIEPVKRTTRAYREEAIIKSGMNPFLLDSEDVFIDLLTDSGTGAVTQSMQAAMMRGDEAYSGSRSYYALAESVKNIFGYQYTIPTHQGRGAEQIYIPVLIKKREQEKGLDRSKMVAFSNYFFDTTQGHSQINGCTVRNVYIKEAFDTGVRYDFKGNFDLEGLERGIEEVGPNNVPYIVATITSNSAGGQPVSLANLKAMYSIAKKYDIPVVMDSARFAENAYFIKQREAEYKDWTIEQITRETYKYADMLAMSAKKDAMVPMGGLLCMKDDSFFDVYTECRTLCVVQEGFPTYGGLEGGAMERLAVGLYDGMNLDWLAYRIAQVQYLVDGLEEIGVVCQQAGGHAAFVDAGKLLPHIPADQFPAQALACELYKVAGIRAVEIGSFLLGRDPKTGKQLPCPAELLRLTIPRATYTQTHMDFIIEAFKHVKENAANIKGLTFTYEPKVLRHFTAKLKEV

What was measured:
[1] = target: T1, E. coli DH5α tryptophan synthase (TrpBA) (Escherichia coli, UniProt P0A879); type: biochemical; design: key: +: a clear ninhydrin-positive spot at the Rf of standard tryptophan derivatives after 16-65 h; (+): a weak spot in the product region; −: no product observed; NR: experiment not run; details: indole derivative + L-serine + PLP, 37° C., 16-65 h, ninhydrin
T1 construct: made in house; host or cells: E. coli LMG194 (pBAD) or BL-21 (pET)
Description: (§1) A mixture containing 2 μmole of the indole derivative, 0.05 μmole of PLP and 50 μmol of L-serine in 40 mM KPi buffer in 8% v/v ethanol water, pH 7.5, was warmed to 37° C., then enzyme solution was added to give a final volume of 1 mL. Aliquots (100 μL) were quenched at intervals of 2, 6, and 24 hours or more in microcentrifuge capsules containing 25 μL of 6 M HCl. The quenched samples were evaporated in a Savant Speed-vac. The residues were resuspended in methanol/water (1:1, 50 μL) and analyzed by TLC on Silica gel GF254 plates alongside tryptophan and tryptamine standards, eluting with CH2Cl2/EtOH/H2O/HOAc 77:20:2:1. Products were visualized first by using short-wave UV light, then with ninhydrin spray reagent (1/1/98 w/v/v ninhydrin/HOAc/EtOH) followed by heating.
(§2) Substituted indoles were incubated with L-serine, PLP and enzyme (TrpBA or TnA) prior to TLC analysis as generally described in Example 6. Serine, which can be used instead of pyruvate and ammonia for tryptophan synthesis with TnA, was employed as the 3-carbon acid because pyruvate tended to obscure the tryptophan product spots when plates were visualized with ninhydrin. TnA-catalyzed formation of tryptophan was also faster when serine was the 3-carbon donor. Reaction rates for several substrates were also estimated by HPLC. […]

tryptophanase (TnA) = target: T2, tryptophanase (TnA) (Escherichia coli, UniProt P0A853); type: biochemical, E. coli; design: key: +: a clear ninhydrin-positive spot at the Rf of standard tryptophan derivatives after 16-65 h; (+): a weak spot in the product region; −: no product observed; NR: experiment not run; details: indole derivative + L-serine + PLP, 37° C., 16-65 h, ninhydrin
T2 construct: made in house; host or cells: E. coli LMG194 (pBAD) or BL-21 (pET)
Description: as §1, §2

TrpBA = target: T3, TrpBA (Escherichia coli, UniProt P0A879); assay: Relative rates of tryptophan derivative synthesis by HPLC, TrpBA; type: biochemical, E. coli; details: initial rate estimated by HPLC, indole = 100%, L-serine
T3 construct: made in house; host or cells: E. coli LMG194 (pBAD) or BL-21 (pET)
Description: Reaction mixtures were prepared as in Example 6 and were incubated at 37° C. Aliquots (100 μL) were removed and quenched by addition of to 300 μL of 0.5 M sodium citrate, pH 3.0 in 10% v/v acetonitrile/water in 2 ml microcentrifuge tubes. Following centrifugation for 10 min at 13,000×g, the supernatants were passed through 0.45μ membrane filters prior to HPLC analysis of 20 μL of filtrate.
TnA reactions were run with L-serine as the 3-carbon substrate.

TrpBA and TDC1 = assay: Coupled enzyme synthesis monitored by HPLC; type: biochemical; details: L-serine, PLP, pH 8.5 phosphate buffer, 37° C.
Description: To a solution containing L-serine (25 μmol), pyridoxal phosphate (0.05 μmol) and TrpBA (0.02 to 1.5 units, depending on the substrate), TDC1 (0.2 mL 0.6 units) and KPi buffer (0.05 mmol, pH 7.5) in a volume of 0.8 mL were added […] of 5 mM indole derivative in 20% v/v ethanol/water. The mixture was incubated at 37° C. and aliquots were quenched and analyzed as described for Example 8. In cases where tryptamine and/or tryptophan standards were not available, peaks were collected for mass spectral analysis. Electrospray mass spectral analyses were performed.
Mixtures containing indole, L-serine, PLP and TDC1 were incubated in pH 8.5 phosphate buffer, analyzing aliquots by HPLC, as described in Example 12.
The procedure used in Example 24 was carried out by substituting indole with 2-methylindole, 4-hydroxymethylindole, 5-methoxy-, 5-hydroxymethyl-, 5-methoxycarbonyl, and 5,6-dimethoxyindole.

Row | SMILES | TrpBA (tryptophan product spot, TLC analysis) [1] | TnA (tryptophan product spot, TLC analysis) (tryptophanase (TnA)) | Relative rate (TrpBA) (TrpBA) | formation of tryptophan derivative and tryptamine (HPLC peaks) (TrpBA and TDC1)
1 | OCc1cccc2[nH]ccc12 [4-hydroxymethyl-, indole-4-methanol] | + | − | 22.0% | a second peak representing formation of tryptamine
2 | COC(=O)Nc1ccc2[nH]ccc2c1 [5-(methoxycarbonyl)amino-, 5-(Methoxycarbonylamino)indole] | + | − | 0.02* % | 
